Results deposited as PubChem BioAssay AID1259327 (Drosophila RNAi Screening Center, 2017).
Shown is one part, drawn at random, of about 3,100 deposited reagents. Over the whole deposit, 378 (12%) got an active call. 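Hits include both directions; z-score sign shows ATP rise or fall; raw luminescence values are not plate-normalised.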 Reagents against one gene are numbered here. Names joined by + are all predicted targets of the reagent. No sequences are given here. The record does not give: the amount of reagent.

Purpose: 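Data from controls in screens of zinc and manganese toxicity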
System: Drosophila S2R+ cells
Reagents: long dsRNA against Drosophila genes
Timing: 5 days (water added on day 4, read one day later)
Treatment: water added as vehicle, no metal, one day before read-out
Read-out: 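Luciferase ATP signal per well, normalised to plate mean, duplicate average converted to z-score across plates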
Reading the numbers: ATP z-score: higher = more total ATP than typical wells; ATP luminescence: higher = more total ATP
Rule for the call: 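Called active when the ATP z-score exceeds 1.5 or falls below -1.5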
Meaning of the calls: active = hit: ATP up or down; inactive = no clear ATP change

gene,reagent,"ATP z-score, duplicate mean","ATP luminescence, replicate 1 (RLU)","ATP luminescence, replicate 2 (RLU)",activity call
CG4630,1,-0.57,6.77e5,6.63e5,inactive
CG4630,2,0.37,8.10e5,9.25e5,inactive
Tsp33B,1,0.704,8.26e5,7.76e5,inactive
Tsp33B,2,0.366,9.93e5,7.52e5,inactive
Tret1-2,1,0.0814,6.38e5,6.16e5,inactive
Tret1-2,2,-0.263,8.05e5,7.78e5,inactive
CG18788,1,-0.283,7.09e5,6.84e5,inactive
CG3106,1,0.697,7.92e5,7.64e5,inactive
CG3106,2,-0.583,6.65e5,8.31e5,inactive
CG9447,1,-0.648,5.73e5,5.49e5,inactive
PIG-A,1,0.332,7.50e5,7.84e5,inactive
PGRP-SC1b,1,0.569,7.76e5,8.08e5,inactive
Oatp33Ea,1,0.00761,3.83e5,5.83e5,inactive
Oatp33Ea,2,-0.347,6.94e5,7.70e5,inactive
teq,1,0.358,9.23e5,9.61e5,inactive
teq,2,1.58,8.98e5,9.30e5,active
CG10337,1,0.195,7.47e5,7.46e5,inactive
CG10337,2,1.1,4.94e5,5.87e5,inactive
Nha1,1,0.805,5.12e5,5.60e5,inactive
Nha1,2,-0.199,4.61e5,4.42e5,inactive
PIG-F,1,-0.291,8.53e5,8.62e5,inactive
PIG-F,2,-1.19,8.72e5,1.04e6,inactive
Gr64a,1,-1.17,4.54e5,5.08e5,inactive
Gr64a,2,-1.05,3.89e5,3.99e5,inactive
fz2,1,0.483,7.56e5,8.11e5,inactive
fz2,2,0.11,9.20e5,9.01e5,inactive
tomboy20,1,-0.34,2.72e5,7.56e5,inactive
Sfxn2,1,0.796,1.15e6,8.60e5,inactive
Sfxn2,2,-1.16,4.06e5,3.65e5,inactive
Vha16-3,1,-0.0279,9.30e5,8.56e5,inactive
Vha16-3,2,0.105,8.43e5,8.84e5,inactive
Grik,1,0.168,7.10e5,7.36e5,inactive
Grik,2,-0.133,2.60e5,8.33e5,inactive
Grik,3,-0.612,7.64e5,7.85e5,inactive
crb,1,0.578,7.75e5,7.56e5,inactive
crb,2,0.49,5.06e5,7.39e5,inactive
NijA,1,-0.102,9.14e5,8.53e5,inactive
CG43373,1,-0.62,8.33e5,7.97e5,inactive
Ret,1,0.453,8.20e5,7.38e5,inactive
Ret,2,0.558,7.54e5,8.16e5,inactive
Ret,3,0.592,6.10e5,6.50e5,inactive
CG32280,1,0.00889,7.45e5,7.42e5,inactive
CG32280,2,-2.36,3.49e5,4.19e5,active
Syb,1,-2.4,4.08e5,5.42e5,active
Syb,2,-0.433,7.39e5,8.54e5,inactive
CG32512,1,-2.59,4.69e5,6.68e5,active
CG32512,2,-2.39,3.92e5,3.62e5,active
CG13795,1,-0.532,6.80e5,6.60e5,inactive
CG13795,2,-1.98,3.71e5,4.64e5,active
Vmat + CG13330,1,0.00741,7.13e5,7.52e5,inactive
Vmat + CG13330,2,0.541,9.03e5,8.74e5,inactive
CG10864,1,0.577,3.41e5,7.83e5,inactive
brv3,1,2.17,9.81e5,1.13e6,active
wtrw,1,0.488,8.12e5,7.02e5,inactive
wtrw,2,-1.31,4.98e5,4.39e5,inactive
Flo2,1,1.1,7.85e5,6.53e5,inactive
Flo2,2,-1.12,5.96e5,9.46e5,inactive
GluRIIA,1,-0.0456,7.34e5,7.09e5,inactive
kug,1,0.0615,7.18e5,7.58e5,inactive
CG7582,1,0.398,6.75e5,7.55e5,inactive
CG7582,2,-0.795,4.02e5,4.46e5,inactive
Gr36a,1,0.546,6.52e5,5.99e5,inactive
Gr36a,2,0.459,9.06e5,9.67e5,inactive
CG9743,1,-0.148,5.74e5,7.11e5,inactive
CG9743,2,-0.227,8.52e5,7.44e5,inactive
CG6230,1,0.183,4.20e5,5.69e5,inactive
CG42269,1,0.368,9.49e5,9.39e5,inactive
CG42269,2,0.253,9.39e5,8.24e5,inactive

Ordered by “ATP luminescence, replicate 2 (RLU)” (descending): 4 of the entries above
gene,reagent,"ATP z-score, duplicate mean","ATP luminescence, replicate 1 (RLU)","ATP luminescence, replicate 2 (RLU)",activity call
fz2,2,0.11,9.20e5,9.01e5,inactive
fz2,1,0.483,7.56e5,8.11e5,inactive
tomboy20,1,-0.34,2.72e5,7.56e5,inactive
Gr64a,2,-1.05,3.89e5,3.99e5,inactive
